According to PubChem BioAssay AID2685 (National Center for Advancing Translational Sciences (NCATS), 2010):
This is one part of the list. Further columns of the screen follow, without active or inactive calls. Compounds called inactive in the main read-out are mostly missing here. The note in brackets gives the kind of curve behind each potency; many fits are weak.

Assay: qHTS Assay for Lipid Storage Modulators in Drosophila S3 Cells;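 on cell number change: cells counted by Cell Tracker Red CMTPX staining in the red channel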
Settings: BODIPY lipid droplet fluorescence, 18-24 h; for cell number change: measured here: cell count max response, cells fed with added oleic acid
How it was run: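 Drosophila S3 cells loaded with oleic acid (400 uM, as added) and compounds at several concentrations; lipid droplets imaged by 488-nm laser-scanning cytometry, 500–530 nm intensity and object ratio to cell channel. Percent activity normalized to 20 uM Triacsin C.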

[1] = measured here: cell number channel AC50, cells fed with added oleic acid
[2] = measured here: lipid fluorescence (Fed channel) AC50, cells fed with added oleic acid

Cc1nc2ccccn2c1C(=O)NNS(=O)(=O)c1ccc(C(C)(C)C)cc1
cell number change: -68.8% | AC50 [1]: 23100 nM [falling, single point] | AC50 [2]: 25900 nM [falling, partial curve]

COc1ccccc1NC(=O)CSc1nc(=O)n2cc(C)ccc2n1
cell number change: -16.1%

COc1ccccc1C(=O)NC(=O)COC(=O)C1CC1C (stereo unspecified)
cell number change: -5.71% | AC50 [1]: 820 nM [falling, full curve, poor fit] | AC50 [2]: 326 nM [falling, full curve, poor fit]

COC(=O)c1ccc(Cn2c(O)c(N=NC(N)=S)c3ccccc32)o1
cell number change: 42.9% | AC50 [1]: 291 nM [rising, full curve]

Cc1nnnn1/C(=C\c1ccccc1)C(=O)OCC(=O)N(C)C1CCS(=O)(=O)C1 (stereo unspecified)
cell number change: -25.2% | AC50 [1]: 461 nM [falling, full curve, poor fit] | AC50 [2]: 651 nM [falling, partial curve, poor fit]

CCOc1ccc(S(=O)(=O)N(CC)CC)cc1NC(=O)CSCc1c(C)noc1C
cell number change: 0.623% | AC50 [2]: 25900 nM [rising, single point]

CCCCNC(=O)COC(=O)c1ccc(N(C)C)cc1
cell number change: 1.17%

COc1ccc(-c2csc3ncnc(N4CCN(c5ccccc5)CC4)c23)cc1
cell number change: -42.1% | AC50 [1]: 13000 nM [falling, partial curve]

COc1cc(OC)cc(C(=O)N2CCN(c3ccccn3)CC2)c1
cell number change: -4.19% | AC50 [2]: 411 nM [rising, partial curve, poor fit]

N#CC1(c2ccc(NC(=O)c3ccccc3)cc2)CCCC1
cell number change: 2.67%

COC(=O)c1ccc(NC(=O)CC2C(=O)N(c3ccc(C)cc3)C(=O)N2CC(C)C)cc1 (stereo unspecified)
cell number change: 16.7% | AC50 [1]: 103 nM [falling, full curve, poor fit]

CCN(CC)c1ccc(NC(=O)CCc2nnc3ccc(N4CCCCC4)nn23)c(C)c1
cell number change: -5.19% | AC50 [2]: 2590 nM [falling, full curve]

CCCCCC(=O)NNC(=S)NC(=O)c1ccc([N+](=O)[O-])cc1
cell number change: -8.28%

CC(=O)C1=C(C)Nc2ncnn2C1c1ccc(O)cc1 (stereo unspecified)
AC50 [2]: 731 nM [falling, full curve]

O=C(O)c1ccccc1C(=O)NNc1ccc(F)cc1F
cell number change: 78%

O=C(COc1ccc(-n2cnnn2)cc1)Nc1ccccc1Cl
cell number change: 5.86% | AC50 [2]: 4.61 nM [falling, full curve, poor fit]

Nc1nc(CN2CCN(c3cccc(Cl)c3)CC2)nc(N2CCCc3ccccc32)n1
cell number change: 14.6%

CC(c1n[nH]c(=S)n1-c1ccc(F)cc1)N1CCCCC1 (stereo unspecified)
cell number change: 24.1% | AC50 [1]: 4.61 nM [rising, full curve, poor fit]

CCOc1ccc(CNC(=O)C2CCN(C(=O)N3CC(C)Oc4ccccc43)CC2)cc1 (stereo unspecified)
cell number change: 19% | AC50 [2]: 6510 nM [rising, partial curve, poor fit]

CCOc1ccc(CCNC(=O)Cn2c(=O)c3cccn3c3cccnc32)cc1
cell number change: 35.1% | AC50 [1]: 25900 nM [rising, single point]

COc1cc2nc(/C=C/c3ccc(N(C)C)cc3)sc2cc1SC
cell number change: -14.4% | AC50 [2]: 29100 nM [falling, single point]

CCC(C)(C)c1ccc(OCCCC[n+]2ccccc2)c(C(C)(C)CC)c1
cell number change: -87.4% | AC50 [1]: 20600 nM [falling, partial curve] | AC50 [2]: 20600 nM [falling, partial curve]

COC(=O)COc1ccc(C2NC(=O)NC(c3ccccc3)=C2C(C)=O)cc1OC (stereo unspecified)
cell number change: -11.2% | AC50 [2]: 820 nM [falling, full curve, poor fit]

COC(=O)C(C(=O)OC)=C(/C=C/C=C/N(C)C)N(C)C
cell number change: -12.4% | AC50 [2]: 164 nM [falling, full curve, poor fit]

CCc1noc(C)c1C(=O)Nc1nc(-c2ccc(OC)cc2)cs1
AC50 [1]: 2060 nM [rising, partial curve]

C#CCOCCOCCOCCNc1nc(N2CCN(C(=O)[C@H](CCC(=O)O)n3cc(C(N)CO)nn3)CC2)nc(N2CCN(C(=O)[C@H](CCCCN)n3cc(C(N)[C@H](C)CC)nn3)CC2)n1 (stereo partly specified)
AC50 [1]: 6510 nM [falling, single point] | AC50 [2]: 6510 nM [falling, single point]

CCCn1c(SCC(=O)Nc2nc3ccccc3s2)nc2c1c(=O)n(C)c(=O)n2C
cell number change: 19.9% | AC50 [2]: 1640 nM [rising, partial curve]

N#CCC(CNc1ncc(C(F)(F)F)cc1Cl)OC(=O)c1cccc([N+](=O)[O-])c1 (stereo unspecified)
cell number change: -17.4% | AC50 [1]: 6510 nM [falling, single point]

Cc1cc(C)c(O)c(C2(O)C(=O)c3ccccc3C2=O)c1
AC50 [2]: 130 nM [falling, full curve, poor fit]

O=C(CSc1nc2ccccc2o1)N1c2ccccc2Sc2ccc(C(F)(F)F)cc21
cell number change: 4.93% | AC50 [2]: 2310 nM [rising, partial curve, poor fit]

CC(C)(Cc1ccccc1)/[N+]([O-])=C\c1ccccc1
cell number change: -17.2% | AC50 [2]: 6510 nM [rising, single point]

Cc1cc(C(=O)CSc2nc(N)cc(N)n2)c(C)n1-c1cccc(C(F)(F)F)c1
cell number change: -33.5% | AC50 [1]: 16400 nM [falling, single point] | AC50 [2]: 4.61 nM [falling, full curve, poor fit]

CC(C)c1ccc(NC(=O)CC2Oc3ccccc3NC2=O)cc1 (stereo unspecified)
cell number change: -20.5% | AC50 [2]: 29100 nM [falling, single point]

CCCCc1ccc(NC(=O)C2CCN(S(C)(=O)=O)CC2)cc1
cell number change: -1.75% | AC50 [2]: 9200 nM [rising, single point]

O=C(Cn1c(=O)sc2ccccc21)Nc1ccc2c(c1)OCCO2
cell number change: 17.1% | AC50 [2]: 1640 nM [rising, partial curve]

O=C1NC(=O)/C(=C/c2ccccc2Oc2ccc(Cl)cc2)S1
cell number change: -76.6% | AC50 [1]: 32600 nM [falling, single point]

CC(C)Oc1ccc(CN2CCCC(CO)(Cc3ccc(F)cc3)C2)cc1 (stereo unspecified)
cell number change: -28.3% | AC50 [2]: 3660 nM [falling, full curve]

Cc1cc(C)cc(N2C(=O)CC(n3nc(C)cc3C)C2=O)c1 (stereo unspecified)
AC50 [2]: 1460 nM [falling, partial curve]
